Five molecules from paper PMC4354152 can be followed below.

Positions count from the first letter of the chain named. In names and notes the source's numbering stands. Results are given in words; binding and its absence hold for the method and conditions named. Binding seen in cells or lysates may run through a third protein. Binding can be weak; no strength is given. Where a sequence is shown, tags or fusion partners need not be part of it.

Assay [1] deals with T1, FLAG-Tmod3 WT stably expressed in 3T3-L1 adipocytes (mouse) (UniProt Q9JHJ0).
T1 sequence: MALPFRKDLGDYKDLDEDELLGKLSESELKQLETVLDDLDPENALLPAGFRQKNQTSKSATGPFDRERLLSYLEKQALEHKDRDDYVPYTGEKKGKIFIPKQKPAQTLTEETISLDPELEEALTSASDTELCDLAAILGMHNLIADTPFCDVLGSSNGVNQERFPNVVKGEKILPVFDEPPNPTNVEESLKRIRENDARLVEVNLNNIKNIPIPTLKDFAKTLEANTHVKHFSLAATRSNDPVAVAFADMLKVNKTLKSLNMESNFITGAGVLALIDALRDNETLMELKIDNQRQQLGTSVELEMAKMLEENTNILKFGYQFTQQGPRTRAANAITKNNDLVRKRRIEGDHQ
Kind of assay: co-IP; immunoprecipitation from 3T3-L1 adipocytes expressing FLAG-Tmod3 (WT or LL mutant); endogenous tropomyosins detected by western blot.

The next assay deals with GST-Tm5NM1. In words: pull-down; GST-Tm5NM1 beads incubated with lysates of HEK293T expressing HA-Tmod3-WT or HA-Tmod3-LL; TNET buffer, 4 °C; only the target purified.

On to “Tm1 (tropomyosin), endogenous in 3T3-L1 adipocytes (mouse (endogenous in 3T3-L1))”, for which the binding entry in assay [1] is recorded as “no binding”. For the molecule “Tm3 (tropomyosin), endogenous in 3T3-L1 adipocytes (mouse (endogenous in 3T3-L1))”, in assay [1], the binding result is “no binding”.

Regarding “Tm5NM1 (tropomyosin), endogenous in 3T3-L1 adipocytes (mouse (endogenous in 3T3-L1))”, the binding entry in assay [1] is listed as “binds”.

B1: HA-Tmod3-WT expressed in HEK293T (protein, UniProt Q9JHJ0 1-352)
chain: T1 sequence
Turning to B1, the binding result with GST-Tm5NM1 is listed as “binds”.

B2: HA-Tmod3-L29G/L134D (HA-Tmod3-LL) expressed in HEK293T (protein, UniProt Q9JHJ0 1-352)
chain: T1 sequence with L29G, L134D
Turning to B2, the binding entry with GST-Tm5NM1 is recorded as “no binding”.
